US7807623B2, “Use of pentagastrin to inhibit gastric acid secretion or as a diuretic” (The Regents of the University of California, priority 1999, dated 2010)
Entries after “also recorded” stand apart in the source; their conditions may differ. For at least one compound, name, drawing or mass did not settle the structure.

Experiments:
[1] = test system: gastric acid secretion; conditions: cited from earlier work
[2] = test system: Pentagastrin-Induced Gastric Acid Secretion; assay: Continuous pentagastrin infusion model: gastric acid output after single i.v. dose; assay type: in vivo, human
Method: After 60 min of pentagastrin infusion, subjects received a single dose of i.v. pantoprazole (20, 40, 80, or 120 mg), i.v. famotidine (20 mg), or saline placebo. […] The study protocol was approved by the UCLA Institutional Review Board and conducted according to the provisions of the Declaration of Helsinki and its amendments. Written informed consent was obtained from each participant before enrollment, and the identity of each patient was kept confidential. Each subject underwent a prestudy screening that included a physical examination, electrocardiogram (ECG), laboratory blood and urine analysis, and a pregnancy test for women. The laboratory test included a complete blood count, blood chemistry tests, a test for human immunodeficiency virus, a screening for hepatitis B and C, and a urine drug screen. Subjects were excluded from the study if abnormalities in these parameters were detected. Maximum AO (MAO) were also determined during the screening period. MAO was estimated by the subcutaneous injection of PG (6 μg/kg), after which four 15-min samples were collected and analyzed (Table 1). […] Subjects who completed the screening examination and were eligible for the study were assigned to one of six treatment groups to receive i.v. doses of pantoprazole (20, 40, 80, or 120 mg), i.v. famotidine (20 mg), or placebo (normal saline). […] To stimulate MAO, subjects received an infusion of PG for 25 h (Peptavalon, Wyeth-Ayerst; 1.0 μg/kg/h) begun 1 h before the start of the study drug infusion. Gastric aspirates were collected by means of nasogastric (NG) tube in 15-min fractions from 1 h before study drug treatment through the end of treatment h 2 and in 30 min fractions from h 3 through the end of h 24. The variables measured were onset of response (time until AO decreased to <10 mEq/h and remained below this level for 1 h), duration of response (time from onset until time when AO levels rose to >10 mEq/h and remained so for 1 h), and cumulative AO 15 over 24 h. […] Vital signs and electrolytes were monitored during this time. […]

CSCC[C@H](NC(=O)[C@H](Cc1c[nH]c2ccccc12)NC(=O)CCNC(=O)OC(C)(C)C)C(=O)N[C@@H](CC(=O)O)C(=O)N[C@@H](Cc1ccccc1)C(N)=O [Pentagastrin, N-t-butyloxycarbonyl-Beta-alanyl-L-tryptophyl-L-methionyl-L-aspartyl-L-phenyl-alanyl amide]
percent of maximal gastric secretory response reached ([1]; PG 0.6 μg/kg/h, in approximately 80% of healthy subjects): 80%
time of peak acid response ([1]; after subcutaneous administration, most cases): twenty to thirty
time to stimulation of gastric acid secretion ([1]; after subcutaneous injection, 6 μg/kg recommended dose): approximately ten
AO during continuous PG infusion, mean ([2]; PG 1 μg/kg/h i.v. for 25 h, placebo (saline) group): 34.5 mEq/h
Cumulative AO (0-24 h) ([2]; PG 1 μg/kg/h i.v., placebo (saline) group, mean): 829±86 mEq
tachyphylaxis to the gastric acid-stimulating effects ([2]; continuous i.v. PG for 25 h, listed as PG): no evidence of tachyphylaxis; also recorded: no indication of tachyphylaxis
